Screening data, single-dose tests

The filed quantity is “Percent Effect” (%).
The record does not define 0% and 100%; most values in the screen are far below 50% and negative numbers occur (in some assays of this library far below -100).
This is an unselected part of the compounds tested.

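Assay of Toxoplasma gondii numbers, read through their beta-galactosidase reporter with a colour substrate. Concentration: 10 µM. Higher reads as fewer parasites (inferred from which compounds were picked for retests). Size under these conditions: about 67,000 compounds, about 260 of them at 50% or above in at least one test.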

structure | Percent Effect
CN1CCC(N2CCOC[C@H]2c2nc(-c3ccncc3)c[nH]2)CC1 | -2.038%
CC(C)(C)CN1CCCC(O)(CN2CCc3[nH]ncc3C2)C1=O (stereo not drawn) | 6.829%
O=C(CCc1cc(Cl)no1)N1CCCCC1CCN1CCOCC1 (stereo not drawn) | 12.54%
CCC[C@H]1CN(S(C)(=O)=O)C[C@@H]1NC(=O)CCCn1ccnc1 | 5.113%
CN(C)c1cc(C(F)(F)F)nc(N2CCCC2c2ccccn2)n1 (stereo not drawn) | 20.24%
CCc1cnc(CN2CCC(O)(c3cc(OC)cc(OC)c3)CC2)o1 | -4.279%
COC(=O)NC1(C(=O)Nc2ccc(-c3ncc[nH]3)cc2)CCCC1 | -6.873%
Cc1nnc(NC(=O)CSCc2cc(=O)n3ccccc3n2)s1 | 3.555%
CC(C)(NCCCOc1ccc(C#N)cc1)c1nccs1 | -7.236%
COCCc1noc(CN2CCCC(Cn3cncn3)C2)n1 (stereo not drawn) | 7.128%
CCOc1ccccc1OC1CCN(C(=O)c2cnsn2)CC1 | -7.881%
O=C(O)C(F)(F)F.[H][C@@]12OCCC[C@]1([H])N(C)C[C@@H]2NC(=O)c1cscn1 | -17.91%
CCC(C)[C@H](NC(=O)c1cc(Br)ccc1-n1cnnn1)C(=O)OC (stereo partly drawn) | -5.14%
O=C(O)CC(O)(CC(=O)O)C(=O)O.OC1CCN(Cc2ccnc(-c3cccnc3)n2)CC1 | 8.679%
Cl.Cl.c1cc(COC[C@@H]2CCC[C@@]23CNCCO3)ccn1 | -1.99%
COc1ccc(CCNC(=O)Nc2cc(C)nn2C)cc1 | 6.908%
O=C(Nc1ccc(-c2csnn2)cc1)N1CC[C@H](O)C1 | -5.239%
COCc1cccc(NS(=O)(=O)c2cc(C(=O)O)cs2)c1 | -8.647%
CN(Cc1noc(C2CC2)n1)C1CCN(CCn2cc(C#N)cn2)C1 (stereo not drawn) | -12.2%
c1coc(-c2nc(CN3CCn4c(nnc4C4CC4)C3)cs2)c1 | 1.796%
O=S(=O)(CCN1CCOC(Cn2cccn2)C1)c1ccccc1 (stereo not drawn) | -1.548%
CC(=O)NCc1cc2n(n1)CCN(Cc1ccccc1OC(F)(F)F)C2 | -4.291%
O=C(NCc1ccccc1CN1CCC(O)CC1)Nc1ccccc1 | 13.49%
[H][C@@]12CCCC[C@]1(O)CCN(C(C)=O)[C@H]2c1ccc2c(c1)OCO2 | 16.34%
CC(NC(=O)N(C)Cc1ccc2c(c1)OCO2)c1nncn1C (stereo not drawn) | 4.945%
Cc1nsc(N2CCCN(C(=O)c3ccc4[nH]ccc4c3)CC2)n1 | -12.19%
COc1cccc2[nH]cc(CCNC(=O)N3CCC[C@H]3CO)c12 | 5.723%
O=C(NCCCN1CCN(c2ncccn2)CC1)NCC1CCCO1 (stereo not drawn) | -2.518%
COCCN(Cc1ccccn1)C(=O)CC1OCCc2ccsc21 (stereo not drawn) | -1.871%
CCC(C)(C)C(=O)N1CCN(C2=NCC(C)S2)CC1 (stereo not drawn) | -7.876%
O=C(COc1cccc2c1CCC2=O)NCCc1cccs1 | -3.605%
c1cncc(CNc2ccccc2-c2nn[nH]n2)c1 | 7.414%
CCCNC(=O)C1(CC2CC(c3ccccc3OC)=NO2)CCOCC1 (stereo not drawn) | 2.463%
CCOc1cc(CNC(=O)c2cnn(CC)c2C(F)(F)F)ccn1 | -13.96%
Cc1cnc(C(=O)N2CCc3c(nc(-c4ccncc4)[nH]c3=O)C2)cn1 | 4.4%
O=C(O)C(F)(F)F.O=C(O)C(F)(F)F.[H][C@]12CCC[C@@]1(COCC1CCOCC1)CN(Cc1ccccn1)C2 | 14.43%
Cc1cc(Oc2ccccc2)nc(C2CCN(CCO)CC2)n1 | 35.35%
CC(C)(O)CN1CCN(C(=O)c2ccc3c(c2)COC3)CC1 | 13.9%
Cc1ccc(N2CCN(C(=O)C3CN(C)C(=O)N3)CC2=O)cc1 (stereo not drawn) | 27.59%
Cc1nc(NC(=O)C(C)N2CCN(c3ccccc3F)CC2)sc1C (stereo not drawn) | 11.63%
[H][C@@]12CCN(C[C@@H]1CC)[C@@H](CNCc1ccc(OC)cc1)C2 | -1.313%
O=C(CCn1ccnc1)N1C[C@@H](O)[C@H](Oc2cccc(F)c2)C1 | 15.44%
CN(C)C(=O)N1CCN(C(=O)c2ccn3cncc3c2)CC1 | -3.215%
CNC(=O)c1n[nH]c2c1C(c1cccc3nsnc13)CC(=O)N2 (stereo not drawn) | 8.226%
COCCN1CCN(C(C(=O)O)c2ccc(SC)cc2)CC1 (stereo not drawn) | 7.396%
Cn1cnnc1-c1ccnc(NCc2ccc3c(c2)OCCO3)c1 | 5.682%
CSc1nccc(N2CCC(NCCN3CCOCC3)CC2)n1 | -2.279%
CC(OCC1CC1)C(=O)NCCC(=O)Nc1ccccn1 (stereo not drawn) | 16.25%

For reference, 3 entries once more:

For Cn1cnnc1-c1ccnc(NCc2ccc3c(c2)OCCO3)c1 the result was 5.682%.
For COC(=O)NC1(C(=O)Nc2ccc(-c3ncc[nH]3)cc2)CCCC1 the result was -6.873%.
For CCC(C)[C@H](NC(=O)c1cc(Br)ccc1-n1cnnn1)C(=O)OC (stereo partly drawn) the result was -5.14%.

From ChEMBL document CHEMBL3988442, “University of Dundee, Small-Polar-MMV Screening Library” (2021).